# Measured values published in publication doi:10.1101/2023.07.25.550453 (bioRxiv, 2023).
# Where two headings read alike, the source gives them in different places. No constants are given. Whether binding was seen depends on the method and setting. For some assays here: In cells and extracts the contact can be indirect. Some binding calls cover weakened binding; strength is not graded here. For some assays here: Sequences can lack the tags named with a protein.
# T1: nuclear cap-binding complex (CBC: CBP80ΔNLS + CBP20), human (human) (UniProt Q09161+P52298)
# T1 sequence 1: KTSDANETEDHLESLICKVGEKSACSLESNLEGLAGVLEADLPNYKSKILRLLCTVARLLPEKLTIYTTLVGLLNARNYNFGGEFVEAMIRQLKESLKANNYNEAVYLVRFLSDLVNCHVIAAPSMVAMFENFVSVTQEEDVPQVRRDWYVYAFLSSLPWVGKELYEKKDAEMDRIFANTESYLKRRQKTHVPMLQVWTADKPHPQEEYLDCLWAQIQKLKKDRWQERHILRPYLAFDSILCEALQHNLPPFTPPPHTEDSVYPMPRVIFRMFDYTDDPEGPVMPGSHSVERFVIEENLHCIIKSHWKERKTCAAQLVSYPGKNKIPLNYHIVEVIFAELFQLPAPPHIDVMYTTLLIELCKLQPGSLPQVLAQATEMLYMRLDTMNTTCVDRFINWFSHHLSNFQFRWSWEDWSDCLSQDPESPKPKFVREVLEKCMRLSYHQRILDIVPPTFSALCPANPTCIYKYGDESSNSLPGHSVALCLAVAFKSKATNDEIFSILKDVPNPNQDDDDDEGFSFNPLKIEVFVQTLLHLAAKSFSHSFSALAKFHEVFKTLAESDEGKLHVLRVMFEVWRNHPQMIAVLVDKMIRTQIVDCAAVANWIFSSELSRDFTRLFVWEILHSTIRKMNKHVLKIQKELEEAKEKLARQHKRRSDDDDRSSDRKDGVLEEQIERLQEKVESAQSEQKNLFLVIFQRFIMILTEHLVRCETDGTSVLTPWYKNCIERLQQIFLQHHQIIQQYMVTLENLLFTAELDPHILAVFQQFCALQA
# T1 sequence 2: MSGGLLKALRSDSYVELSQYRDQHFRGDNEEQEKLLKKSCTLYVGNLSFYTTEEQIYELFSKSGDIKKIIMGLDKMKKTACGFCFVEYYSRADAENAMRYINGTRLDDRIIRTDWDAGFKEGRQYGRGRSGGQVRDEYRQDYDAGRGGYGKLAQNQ
# T2: MYC-ZC3H18-WT (mouse) (mouse) (UniProt Q0P678)
# T2 sequence: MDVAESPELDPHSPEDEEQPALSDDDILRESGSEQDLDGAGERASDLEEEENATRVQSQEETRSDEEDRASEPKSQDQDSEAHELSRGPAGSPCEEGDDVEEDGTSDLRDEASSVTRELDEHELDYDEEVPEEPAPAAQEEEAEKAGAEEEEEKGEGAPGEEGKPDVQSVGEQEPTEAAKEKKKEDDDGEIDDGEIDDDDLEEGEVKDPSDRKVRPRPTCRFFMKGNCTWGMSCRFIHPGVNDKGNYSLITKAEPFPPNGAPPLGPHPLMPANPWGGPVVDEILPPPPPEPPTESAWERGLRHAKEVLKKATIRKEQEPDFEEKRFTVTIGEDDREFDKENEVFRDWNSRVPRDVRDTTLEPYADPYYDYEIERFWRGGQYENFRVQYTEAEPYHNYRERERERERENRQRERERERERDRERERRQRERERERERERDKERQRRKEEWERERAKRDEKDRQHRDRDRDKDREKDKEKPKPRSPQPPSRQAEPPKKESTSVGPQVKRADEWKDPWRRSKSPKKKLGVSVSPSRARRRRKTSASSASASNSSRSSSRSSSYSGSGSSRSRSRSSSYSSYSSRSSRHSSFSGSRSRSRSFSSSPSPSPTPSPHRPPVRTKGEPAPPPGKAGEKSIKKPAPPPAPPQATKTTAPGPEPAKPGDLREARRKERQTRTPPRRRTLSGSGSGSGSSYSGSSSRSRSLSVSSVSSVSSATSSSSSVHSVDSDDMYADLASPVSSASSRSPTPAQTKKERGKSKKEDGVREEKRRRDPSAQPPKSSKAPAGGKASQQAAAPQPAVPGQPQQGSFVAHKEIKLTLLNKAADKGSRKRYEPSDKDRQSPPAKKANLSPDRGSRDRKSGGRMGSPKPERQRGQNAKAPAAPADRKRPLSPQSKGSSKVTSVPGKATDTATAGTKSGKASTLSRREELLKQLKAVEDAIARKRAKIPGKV
# T3: MYC-ZC3H18-W297E (mouse) (mouse) (UniProt Q0P678)
# T3 sequence: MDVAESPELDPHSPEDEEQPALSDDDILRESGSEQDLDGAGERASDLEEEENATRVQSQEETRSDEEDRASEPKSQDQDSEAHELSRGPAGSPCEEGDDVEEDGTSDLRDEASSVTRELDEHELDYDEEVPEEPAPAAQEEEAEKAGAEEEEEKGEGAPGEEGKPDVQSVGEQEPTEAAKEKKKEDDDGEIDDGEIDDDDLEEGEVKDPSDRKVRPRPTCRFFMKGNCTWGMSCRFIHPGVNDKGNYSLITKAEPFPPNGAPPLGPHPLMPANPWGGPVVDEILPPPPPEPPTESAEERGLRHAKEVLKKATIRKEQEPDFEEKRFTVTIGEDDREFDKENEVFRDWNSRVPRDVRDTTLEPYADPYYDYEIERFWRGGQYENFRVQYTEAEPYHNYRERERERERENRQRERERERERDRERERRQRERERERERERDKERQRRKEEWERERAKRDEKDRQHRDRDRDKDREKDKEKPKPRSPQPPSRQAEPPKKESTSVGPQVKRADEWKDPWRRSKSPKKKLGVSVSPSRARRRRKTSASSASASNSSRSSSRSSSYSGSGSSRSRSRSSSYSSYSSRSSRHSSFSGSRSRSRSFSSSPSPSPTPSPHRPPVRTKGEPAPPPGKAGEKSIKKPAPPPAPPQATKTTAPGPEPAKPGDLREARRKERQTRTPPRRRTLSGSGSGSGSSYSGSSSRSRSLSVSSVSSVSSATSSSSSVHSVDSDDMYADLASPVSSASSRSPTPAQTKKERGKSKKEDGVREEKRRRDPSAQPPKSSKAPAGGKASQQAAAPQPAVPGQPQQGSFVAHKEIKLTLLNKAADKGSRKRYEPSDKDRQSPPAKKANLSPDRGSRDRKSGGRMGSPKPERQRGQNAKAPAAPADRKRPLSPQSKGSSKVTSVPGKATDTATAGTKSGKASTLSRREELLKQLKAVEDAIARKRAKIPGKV
# T4: His-MBP-NCBP3^1-320 (human) (UniProt Q53F19)
# T4 sequence: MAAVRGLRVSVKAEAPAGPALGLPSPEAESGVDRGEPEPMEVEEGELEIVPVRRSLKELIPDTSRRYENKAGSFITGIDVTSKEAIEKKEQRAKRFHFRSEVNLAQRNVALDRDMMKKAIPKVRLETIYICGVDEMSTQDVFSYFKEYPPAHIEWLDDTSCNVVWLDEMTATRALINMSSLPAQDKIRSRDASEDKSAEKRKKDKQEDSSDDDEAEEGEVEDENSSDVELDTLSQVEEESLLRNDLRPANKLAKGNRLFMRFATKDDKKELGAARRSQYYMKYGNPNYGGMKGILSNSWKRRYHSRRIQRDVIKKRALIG
# B1: ARS2 (mouse, endogenous) (protein, UniProt Q99MR6 1-875)
# chain: MGDSDDEYDRRRRDKFRRERSDYDRSRERDERRRGDDWNDREWDRGRERRSRGEYRDYDRNRRERFSPPRHELSPPQKRMRRDWDEHSSDPYHSGYDMPYAGGGGGPTYGPPQPWGHPDVHIMQHHVLPIQARLGSIAEIDLGVPPPIMKSFKEFLLSLDDSVDETEAVKRYNDYKLDFRRQQMQDFFLAHKDEEWFRSKYHPDEVGKRRQEARGALQNRLKVFLSLMESGWFDNLLLDIDKADAIVKMLDAAVIKMEGGTENDLRILEQEEEEEQAGKTGEASKKEEARAGPALGEGERKANDKDEKKEDGKQAENDSSNDDKTKKSEGDGDKEEKKEEAEKEAKKSKKRNRKQSGDDSFDEGSVSESESESEGGQAEEEKEEAEEALKEKEKPKEEEKEKPKDAAGLECKPRPLHKTCSLFMRNIAPNISRAEIISLCKRYPGFMRVALSEPQPERRFFRRGWVTFDRSVNIKEICWNLQNIRLRECELSPGVNRDLTRRVRNINGITQHKQIVRNDIKLAAKLIHTLDDRTQLWASEPGTPPVPTSLPSQNPILKNITDYLIEEVSAEEEELLGSSGGPPPEEPPKEGNPAEINVERDEKLIKVLDKLLLYLRIVHSLDYYNTCEYPNEDEMPNRCGIIHVRGPMPPNRISHGEVLEWQKTFEEKLTPLLSVRESLSEEEAQKMGRKDPEQEVEKFVTSNTQELGKDKWLCPLSGKKFKGPEFVRKHIFNKHAEKIEEVKKEVAFFNNFLTDAKRPALPEIKPAQPPGPAQILPPGLTPGLPYPHQTPQGLMPYGQPRPPILGYGAGAVRPAVPTGGPPYPHAPYGAGRGNYDAFRGQGGYPGKPRNRMVRGDPRAIVEYRDLDAPDDVDFF
# B2: nuclear cap-binding complex (CBC: CBP80ΔNLS + CBP20), human (complex, UniProt Q09161 20-790; P52298 1-156)
# chain 1: KTSDANETEDHLESLICKVGEKSACSLESNLEGLAGVLEADLPNYKSKILRLLCTVARLLPEKLTIYTTLVGLLNARNYNFGGEFVEAMIRQLKESLKANNYNEAVYLVRFLSDLVNCHVIAAPSMVAMFENFVSVTQEEDVPQVRRDWYVYAFLSSLPWVGKELYEKKDAEMDRIFANTESYLKRRQKTHVPMLQVWTADKPHPQEEYLDCLWAQIQKLKKDRWQERHILRPYLAFDSILCEALQHNLPPFTPPPHTEDSVYPMPRVIFRMFDYTDDPEGPVMPGSHSVERFVIEENLHCIIKSHWKERKTCAAQLVSYPGKNKIPLNYHIVEVIFAELFQLPAPPHIDVMYTTLLIELCKLQPGSLPQVLAQATEMLYMRLDTMNTTCVDRFINWFSHHLSNFQFRWSWEDWSDCLSQDPESPKPKFVREVLEKCMRLSYHQRILDIVPPTFSALCPANPTCIYKYGDESSNSLPGHSVALCLAVAFKSKATNDEIFSILKDVPNPNQDDDDDEGFSFNPLKIEVFVQTLLHLAAKSFSHSFSALAKFHEVFKTLAESDEGKLHVLRVMFEVWRNHPQMIAVLVDKMIRTQIVDCAAVANWIFSSELSRDFTRLFVWEILHSTIRKMNKHVLKIQKELEEAKEKLARQHKRRSDDDDRSSDRKDGVLEEQIERLQEKVESAQSEQKNLFLVIFQRFIMILTEHLVRCETDGTSVLTPWYKNCIERLQQIFLQHHQIIQQYMVTLENLLFTAELDPHILAVFQQFCALQA
# chain 2: MSGGLLKALRSDSYVELSQYRDQHFRGDNEEQEKLLKKSCTLYVGNLSFYTTEEQIYELFSKSGDIKKIIMGLDKMKKTACGFCFVEYYSRADAENAMRYINGTRLDDRIIRTDWDAGFKEGRQYGRGRSGGQVRDEYRQDYDAGRGGYGKLAQNQ
# B3: NCBP3^560-620 (W581E) (domain or fragment, UniProt Q53F19 560-620)
# chain: TKKVDHRAPGAEEDDSELQRAEGALIKEKEQSRQKKSRLDNLPSLQIEVSRESSSGSEAES
# Columns and labels:
# [1] = target: T1, nuclear cap-binding complex (CBC: CBP80ΔNLS + CBP20), human (human); experiment: SEC
# [2] = target: T2, MYC-ZC3H18-WT (mouse) (mouse); experiment: co-IP
# [3] = target: T3, MYC-ZC3H18-W297E (mouse) (mouse); experiment: co-IP
# [4] = target: T4, His-MBP-NCBP3^1-320 (human); experiment: pull-down
# [5] = target: T1, nuclear cap-binding complex (CBC: CBP80ΔNLS + CBP20), human (human); experiment: SEC; remark: listed apart in the source
molecule,measurement,setting,value
His-MBP-PHAX^103-196 (W118E) (from UniProt Q9H814 103-196) (domain or fragment),binding,[1],no binding
B1,binding,[2],binds
same,binding,[3],binds
B2,binding,[4],no binding
B3,binding,[5],no binding
